These results are taken from PubChem BioAssay AID330 (DTP/NCI, 2004).

For this assay, the system named is P388 leukemia ip, CD2F1 mice, survival T/C. Put plainly: NCI In Vivo Anticancer Drug Screen. Data for tumor model P388 Leukemia (intraperitoneal) in CD2F1 (CDF1) mice. As to conditions: T/C endpoint: median survival time, higher T/C = longer survival.
[1] abbreviates: dose: 100.0 mg/kg/injection, schedule: Q01DX009 (ip), vehicle: Klucel (hydroxypropylcellulose) (HPC).
[2] abbreviates: dose: 200.0 mg/kg/injection, schedule: Q01DX009 (ip), vehicle: Klucel (hydroxypropylcellulose) (HPC).
The mark [3] stands for this setting: dose: 200.0 mg/kg/injection, schedule: Q01DX005 (ip), vehicle: Klucel (hydroxypropylcellulose) (HPC).
Setting [4] is: dose: 200.0 mg/kg/injection, schedule: Q01DX005 (ip), vehicle: saline with Tween-80.
The mark [5] stands for this setting: dose: 100.0 mg/kg/injection, schedule: Q01DX005 (ip), vehicle: saline with Tween-80.
Where [6] appears, read: dose: 100.0 mg/kg/injection, schedule: Q01DX009 (ip), vehicle: saline with Tween-80.
[7] abbreviates: dose: 200.0 mg/kg/injection, schedule: Q01DX009 (ip), vehicle: saline with Tween-80.

The list does not hold the whole screen: it gathers tests that were run many times, whatever their T/C, doses with no T/C, and many T/C values between a quarter and a half above the control. Other doses and runs of a compound stand elsewhere. T/C is the treated group as % of the vehicle group. Some doses have a count of surviving animals in place of a T/C: the source holds a T/C of zero for them, seemingly a mark for toxic or unscored doses. Some survivor counts are full or nearly so, which does not show that the dose was tolerated: survival well below the control is almost never listed, so the zero probably covers shortened survival too. Survivors were counted at the toxicity check, usually on the fifth day, unless a day is given; later deaths do not show. Schedule codes are those of the source, read here as Q, the interval in days (D) or hours (H), X, the number of doses. Some entries were tested several times; the values are given in rising order. For survival time, this PubChem deposit counts one and a half times the control or more as active, and values a quarter to a half above the control carry no call in these data; other NCI protocols may use other cut-offs.

`CC(C)N1C(Nc2ccccn2)C(C)(C)C(C)(C)C1Nc1ccccn1` (centres undefined): the T/C reads like this: (dose: 60.0 mg/kg/injection, schedule: Q01DX005 (ip), vehicle: Klucel (hydroxypropylcellulose) (HPC)) 126 and 134 % of control; (dose: 120.0 mg/kg/injection, schedule: Q01DX005 (ip), vehicle: Klucel (hydroxypropylcellulose) (HPC)) 134 and 147 % of control. Besides, the survivor count (dose: 480.0 mg/kg/injection, schedule: Q01DX005 (ip), vehicle: Klucel (hydroxypropylcellulose) (HPC)) is 0 of 6.
Turning to `Clc1cccc(/C=C/c2ccnnc2)c1`, the survivor count (dose: 50.0 mg/kg/injection, schedule: Q01DX009 (ip), vehicle: saline) is 6 of 6.
As for `CCSC(=S)S(=O)(=O)c1ccc(C)cc1`, the survivor count under setting [1] is 1 of 6 and the survivor count under setting [2] is 0 of 6.
As to `CC(=O)CC(C)=NCC(C)N=C(C)CC(C)=O.c1cc[c]([Sn][c]2ccccc2)cc1` (centres undefined), the T/C (dose: 2.5 mg/kg/injection, schedule: Q01DX009 (ip), vehicle: saline) was 142 % of control. In addition, the survivor count is recorded as 0 of 6 (dose: 10.0 mg/kg/injection, schedule: Q01DX009 (ip), vehicle: saline) and 0 of 6 (dose: 20.0 mg/kg/injection, schedule: Q01DX009 (ip), vehicle: saline).
Turning to `CN(C)CCCC1(O)c2ccccc2CCc2ccccc21`, for the setting “dose: 200.0 mg/kg/injection, schedule: Q01DX009 (ip), vehicle: saline”, the survivor count was 1 of 6.
Regarding `COc1oc(C2C/C(=C/C(C)=C/C(C)=C/C(C)=C/c3ccc([N+](=O)[O-])cc3)CO2)c(C)c(=O)c1C` (centres undefined), the T/C reads like this: (dose: 0.5 mg/kg/injection, schedule: Q01DX005 (ip), vehicle: saline) 129 % of control; (dose: 1.0 mg/kg/injection, schedule: Q01DX005 (ip), vehicle: saline) 140 % of control; (dose: 2.0 mg/kg/injection, schedule: Q01DX005 (ip), vehicle: saline) 148 % of control. Besides, the survivor count (dose: 4.0 mg/kg/injection, schedule: Q01DX005 (ip), vehicle: saline) was 4 of 6 and 6 of 6.
`COc1cc(NC(=O)C2=C(C)NC(C)=C(C(=O)Nc3cc(OC)c(Cl)cc3OC)C2c2cccc([N+](=O)[O-])c2)c(OC)cc1Cl`: the survivor count (dose: 240.0 mg/kg/injection, schedule: Q01DX005 (ip), vehicle: Klucel (hydroxypropylcellulose) (HPC)) is 6 of 6.
Regarding `COc1ccc2nc3ccccc3c(NCCCCCCCCNc3c4ccccc4nc4ccc(OC)cc34)c2c1`, the survivor count was 1 of 4 (dose: 10.0 mg/kg/injection, schedule: Q01DX009 (ip), vehicle: other); 0 of 4 (dose: 15.0 mg/kg/injection, schedule: Q01DX009 (ip), vehicle: other); 0 of 4 (dose: 20.0 mg/kg/injection, schedule: Q01DX009 (ip), vehicle: other).
`C=C1C(=O)OC2/C=C(\C)CC/C=C(/C(=O)OC)C(OC(C)=O)C(OC(=O)C(C)(O)C(C)O)C12` (centres undefined): the T/C (dose: 6.0 mg/kg/injection, schedule: Q01DX009 (ip), vehicle: Klucel (hydroxypropylcellulose) (HPC)) was 129 % of control.
Take `CCC(C)(C)C(=O)O`: the survivor count (dose: 400.0 mg/kg/injection, schedule: Q01DX009 (ip), vehicle: saline with Tween-80) is 4 of 6.
Take `O=C1NC(=O)C(Cc2ccc(N(CCO)CCO)cc2)(c2ccccc2)N1` (centres undefined): the T/C runs as follows: (dose: 100.0 mg/kg/injection, schedule: Q01DX005 (ip), vehicle: Klucel (hydroxypropylcellulose) (HPC)) 126 % of control; under setting [3], 131 % of control.
For `C[CH2][Ge]([Cl])([Cl])[CH2]C`, the survivor count under setting [3] was 2 of 5.
On to `CC(=O)OC1CN(C)CC=C1c1ccccc1` (centres undefined), for which the survivor count is 0 of 6 (dose: 120.0 mg/kg/injection, schedule: Q01DX005 (ip), vehicle: saline with Tween-80) and 0 of 6 (dose: 240.0 mg/kg/injection, schedule: Q01DX005 (ip), vehicle: saline with Tween-80).
Consider `O=C1c2ccccc2C(=O)c2c1ccc1ccccc21`, for which, under setting [4], the survivor count is 1 of 5.
Consider `O=C1Nc2c(Cl)cc(Cl)cc2/C1=N/N=C/c1ccccc1O`, for which the survivor count under setting [5] is 5 of 5 and the survivor count under setting [4] is reported as 5 of 5.
Take `O=c1nc(-c2ccco2)sc(=O)[nH]1`: the T/C under setting [1] is 125 % of control.
For `O=C1c2ccccc2C(=O)N1CCCN1CCOCCOCCN(CCCN2C(=O)c3ccccc3C2=O)CCOCC1`, for the setting “dose: 200.0 mg/kg/injection, schedule: Q01DX005 (ip), vehicle: saline + Tween-80 + alcohol”, the survivor count was 0 of 6.
`Cc1ccc(N=Nc2ccc(N(CCCl)CCCl)cc2C)c(C(=O)O)c1`: the T/C runs as follows: (dose: 6.25 mg/kg/injection, schedule: Q01DX009 (ip), vehicle: saline with Tween-80) 132 and 142 % of control; (dose: 25.0 mg/kg/injection, schedule: Q01DX009 (ip), vehicle: saline with Tween-80) 142 % of control. The survivor count (dose: 50.0 mg/kg/injection, schedule: Q01DX009 (ip), vehicle: saline with Tween-80) is 6 of 6; the survivor count under setting [6] is recorded as 5 of 6; the survivor count under setting [7] was 0 of 6.
Take `Cc1cc(C)nc(NS(=O)(=O)c2ccc(NC(=O)Nc3ccc([N+](=O)[O-])cc3Cl)cc2)n1`: the survivor count under setting [2] was 6 of 6.
As for `CCCCN(CCCC)C(=N)c1ccc(OC)c(OC)c1`, the survivor count is on record as 1 of 5 (dose: 50.0 mg/kg/injection, schedule: Q01DX005 (ip), vehicle: saline); 0 of 5 (dose: 100.0 mg/kg/injection, schedule: Q01DX005 (ip), vehicle: saline); 0 of 5 (dose: 200.0 mg/kg/injection, schedule: Q01DX005 (ip), vehicle: saline).
Regarding `CC(=O)/C(Cl)=N\O`, the survivor count runs as follows: (dose: 50.0 mg/kg/injection, schedule: Q01DX005 (ip), vehicle: saline with Tween-80) 0 of 5; under setting [5], 0 of 5; under setting [4], 0 of 5.
`CC(=O)OC/C=C(\C)CC(/C=C(C)/C=C/C1=C(C)CCCC1(C)C)S(=O)(=O)c1ccccc1` (centres undefined): the survivor count under setting [6] was 6 of 6.
Turning to `C#CCOC(=O)c1ccccc1`, the survivor count is, setting by setting: under setting [5], 3 of 6; under setting [4], 0 of 6.
`CCCCCCC[CH2][Sn](=[O])[CH2]CCCCCCC`: the survivor count is reported as 6 of 6 under setting [6] and 1 of 6 under setting [7].
With `Nc1nc(-c2ccncc2)cc(-c2cc(-c3ccncc3)nc(N)n2)n1`, where the note is “dose: 240.0 mg/kg/injection, schedule: Q01DX005 (ip), vehicle: saline”, the survivor count is on record as 2 of 6.
Take `C=CC(C(=O)O)S(=O)(=O)O` (centres undefined): the survivor count (dose: 80.0 mg/kg/injection, schedule: Q01DX009 (ip), vehicle: saline with Tween-80) was 2 of 6.
